Values from PubChem BioAssay AID1259308 (NCATS, 2017)

Assay: 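Genes whose loss raises luciferase production in HEK293 cells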 (primary screen)
Cells: human HEK293 embryonic kidney cells stably expressing firefly luciferase (HEK-CMV-Luc2-Hygro)
Reagents: single siRNA against human genes, 0.8 pmol siRNA per well
Duration: 72 h
Measurement: 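Reporter luminescence and viable-cell signal on separate replicate plates, given as percent of non-targeting control and median/MAD z-scores, plus per-cell luciferase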
Reading the numbers: total luciferase, z-score: higher = more reporter protein produced
Call rule: 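Active when the median/MAD z-score for overall luciferase is greater than 3; a gene was taken forward for validation with new siRNAs if at least two of its three siRNAs passed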
Calls: active = raised luciferase; inactive = no rise
In all, the deposit lists about 59,000 reagents; below is a part drawn at random. Over the whole deposit, about 1,510 (2.6%) are marked active. 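Calls use total luciferase alone and ignore viability, so some active siRNAs may act by altering cell number.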 Reagents against one gene are numbered here. Further read-outs or replicates are left out here.

SPINK7 (serine peptidase inhibitor Kazal type 7) #1 — total luciferase, z-score = 0.017; outcome = inactive
SPINK7 (serine peptidase inhibitor Kazal type 7) #2 — total luciferase, z-score = -0.262; outcome = inactive
SPINK7 (serine peptidase inhibitor Kazal type 7) #3 — total luciferase, z-score = -0.87; outcome = inactive
SLC44A2 #1 — total luciferase, z-score = 2.17; outcome = inactive
SLC44A2 #2 — total luciferase, z-score = 0.466; outcome = inactive
SLC44A2 #3 — total luciferase, z-score = -0.551; outcome = inactive
OR6K6 (olfactory receptor family 6 subfamily K member 6) #1 — total luciferase, z-score = 1.16; outcome = inactive
OR6K6 (olfactory receptor family 6 subfamily K member 6) #2 — total luciferase, z-score = -0.629; outcome = inactive
OR6K6 (olfactory receptor family 6 subfamily K member 6) #3 — total luciferase, z-score = -0.959; outcome = inactive
NIBAN1 (niban apoptosis regulator 1) #1 — total luciferase, z-score = 1.53; outcome = inactive
NIBAN1 (niban apoptosis regulator 1) #2 — total luciferase, z-score = 1.28; outcome = inactive
NIBAN1 (niban apoptosis regulator 1) #3 — total luciferase, z-score = -0.377; outcome = inactive
SPDYE2B (speedy/RINGO cell cycle regulator family member E2B) #1 — total luciferase, z-score = -0.144; outcome = inactive
SPDYE2B (speedy/RINGO cell cycle regulator family member E2B) #2 — total luciferase, z-score = 0.815; outcome = inactive
SPDYE2B (speedy/RINGO cell cycle regulator family member E2B) #3 — total luciferase, z-score = 0.214; outcome = inactive
FASN (fatty acid synthase) #1 — total luciferase, z-score = 0.512; outcome = inactive
FASN (fatty acid synthase) #2 — total luciferase, z-score = 0.195; outcome = inactive
FASN (fatty acid synthase) #3 — total luciferase, z-score = -0.397; outcome = inactive
OSTCP1 (oligosaccharyltransferase complex subunit pseudogene 1) #1 — total luciferase, z-score = 0.711; outcome = inactive
OSTCP1 (oligosaccharyltransferase complex subunit pseudogene 1) #2 — total luciferase, z-score = -0.112; outcome = inactive
OSTCP1 (oligosaccharyltransferase complex subunit pseudogene 1) #3 — total luciferase, z-score = -0.8; outcome = inactive
